# Results reported in publication PMC2814829.
# These are yes or no findings as the source states them, for the method shown. Some binding calls cover weakened binding; strength is not graded here. Tags and fused reporters may be left off the sequences shown.
# B1: Phosphorylated APR-1/APC, amino acids 1-545, Gal4-AD fusion, in yeast expressing constitutively active Src kinase (domain or fragment, UniProt Q21227 1-545)
# chain: MSSSSSDENETTIHRTGSNTGGSGIYSQPRAGSSKRTSNVRHDVSDVDDEEEHYARFREDTAIEVDDAITVLLSSLHFEHKRDIVPTDEDDNKLRELHEKIFALITSESDVNRKRRLKKALPASNCVREQVYYLRRKPSTPPASYYHRLNAALHTIVKESFGEEYRKVATVLGLVEALAEVLILEVHTFGINETNPGEHRNIRKLIANALTNLTYGQIHSKRRLCSYDGFIRCVVRIVIESPNITQVYAGLIRNLSWNADSGMSEALQPTVHALSIAAVHAHTHRFDVTATLSALWNLAGHSVENKRTICDTPNCLKVLASLLSPDARFTSLVDSATGILKYVSQYLANTSTHLELRSLLITRMLTLLKSASFTCVTNTLGAIANLIVKDPHMQQMIRQDMAAVQQLNVLRNSNRDDIRTAVKSVLNTLNQPCSHRYGDMSHSVGGGATGMQMLSEPQLQMQTSHHAYHGTASPRLLSLRATRASPGKYIQPQAQQQLIQTPQVDQRSSSLPRHFAVQRNGFVMAQSYNQQMDQHQQQQMIYQLQ
# modifications: phosphotyrosine (constitutively active Src kinase in the yeast; site not stated)
# Biological target: T1, LexA-BD-CED-2 (full-length CED-2/CrkII fused to the LexA DNA binding domain) (C. elegans) (UniProt Q9NHC3)
# T1 sequence: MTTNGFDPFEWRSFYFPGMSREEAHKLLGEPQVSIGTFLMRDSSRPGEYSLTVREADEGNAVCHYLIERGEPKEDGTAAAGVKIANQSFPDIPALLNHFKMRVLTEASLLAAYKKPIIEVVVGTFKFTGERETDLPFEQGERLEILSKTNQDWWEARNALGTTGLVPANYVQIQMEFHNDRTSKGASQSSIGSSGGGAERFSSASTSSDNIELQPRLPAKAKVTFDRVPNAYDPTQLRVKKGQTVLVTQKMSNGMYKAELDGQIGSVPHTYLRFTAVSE
# Assay: two-hybrid; bait LexA-BD-CED-2 (pBTM116-Src), prey Gal4-AD fusion (pGAD-GH); constitutively active Src kinase expressed in the yeast; growth on Leu- Trp- His- plates in the screen, retest by beta-galactosidase activity on Leu- Trp- plates with X-Gal
binder,measurement,value
B1,binding,binds
